We go through two sequences from patent US20100297750.

Holding throughout (experiment): pull-down
The target of one data set is T1, ZFP36L1 (UniProt Q07352).
T1 sequence (looked up, limits assumed): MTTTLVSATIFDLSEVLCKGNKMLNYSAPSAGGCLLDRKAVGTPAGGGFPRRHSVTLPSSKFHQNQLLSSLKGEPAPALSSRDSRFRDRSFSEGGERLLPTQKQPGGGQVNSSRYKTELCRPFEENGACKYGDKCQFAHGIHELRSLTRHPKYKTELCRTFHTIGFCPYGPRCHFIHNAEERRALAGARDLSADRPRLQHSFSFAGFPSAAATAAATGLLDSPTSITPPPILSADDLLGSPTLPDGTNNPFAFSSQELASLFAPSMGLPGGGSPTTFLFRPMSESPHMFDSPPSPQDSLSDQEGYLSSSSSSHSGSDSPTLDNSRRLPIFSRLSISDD
The note with it: protein in a lysate after overexpression, protein details: Myc-tagged, expressed in 293T cells, label: 3' flag peptide.

The next data set concerns the target T2, ZFP36L2 (UniProt P47974).
T2 sequence (looked up, limits assumed): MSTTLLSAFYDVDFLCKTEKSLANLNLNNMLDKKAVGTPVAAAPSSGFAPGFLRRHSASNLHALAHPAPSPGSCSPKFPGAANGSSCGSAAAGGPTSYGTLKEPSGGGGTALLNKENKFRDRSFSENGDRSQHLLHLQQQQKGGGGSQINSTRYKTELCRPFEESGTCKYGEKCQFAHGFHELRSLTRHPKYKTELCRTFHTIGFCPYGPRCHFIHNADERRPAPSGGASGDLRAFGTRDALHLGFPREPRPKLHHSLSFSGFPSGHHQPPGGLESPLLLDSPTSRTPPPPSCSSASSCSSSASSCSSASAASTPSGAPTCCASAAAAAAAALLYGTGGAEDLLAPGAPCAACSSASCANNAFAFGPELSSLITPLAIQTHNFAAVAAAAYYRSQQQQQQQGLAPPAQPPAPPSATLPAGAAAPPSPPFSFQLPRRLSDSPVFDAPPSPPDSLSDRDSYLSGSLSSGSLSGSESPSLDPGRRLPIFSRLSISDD
The note with it: protein in a lysate after overexpression, protein details: Myc-tagged, expressed in 293T cells, label: 3' flag peptide.

A further data set addresses T3, ZFP36L1 (endogenous) (UniProt Q07352).
T3 sequence (looked up, limits assumed): T1 sequence (looked up, limits assumed)
To be noted: identified by LC-MS/MS from 293T extract; protein in an extract; label: 3' flag peptide.

The target in a further data set is T4, ZFP36L2 (endogenous) (UniProt P47974).
T4 sequence (looked up, limits assumed): T2 sequence (looked up, limits assumed)
The note with it: identified by LC-MS/MS from 293T extract; protein in an extract; label: 3' flag peptide.

The exact form of at least one protein or probe is not confirmed. Where cells or extracts were used, other partners may take part. For part of these data: A weaker result is weaker than the reference pair of the same experiment. Tags and fusion partners may be left off the protein sequences shown.

With “UAGGCGGACUAUGACUUAGUUGCGUUACACCCUUUCUUGACAAAACCUAACUUGCGCAGAAAACAAGAUGAGAUUGGCAUGGCUUUAUUUGUUUUUUUUGUUUUGUUUUGGUUUUUUUUUUUUUUUUGGCUUGACUCAGGAUUUAAAAACUGGAACGGUGAAGGUGACAGCAGUCGGUUGGAGCGAGCAUCCCCCAAAGUUCACAAUGUGGCCGAGGACUUUGAUUGCACAUUGUUGUUUUUUUAAUAGUCAUUCCAAAUAUGAGAUGCAUUGUUACAGGAAGUCCCUUGCCAUCCUAAAAGCCACCCCACUUCUCUCUAAGGAGAAUGGCCCAGUCCUCUCCCAAGUCCACACAGGGGAGGUGAUAGCAUUGCUUUCGUGUAAAUUAUGUAAUGCAAAAUUUUUUUAAUCUUCGCCUUAAUACUUUUUUAUUUUGUUUUAUUUUGAAUGAUGAGCCUUCGUGCCCCCCCUUCCCCCUUUUUGUCCCCCAACUUGAGAUGUAUGAAGGCUUUUGGUCUCCCUGGGAGUGGGUGGAGGCAGCCAGGGCUUACCUGUACACUGACUUGAGACCA [beta-Actin 3'UTR 1199-1770]”, the binding result in the data set with ZFP36L1 (extremely small signal) and in the data set with ZFP36L2 (extremely small signal) was “binds more weakly” in each case.
Turning to “ACAUCUGCCUGGAGUCCCGCCCCUGCCCAGAACCCUUCCUGAGACCUCGCCGGCCUUGUUUUAUUCAAAGACAGAGAAGACCAAAGCAUUGCCUGCCAGAGCUUUGUUUUAUAUAUUUAUUCAUCUGGGAGGCAGAACAGGCUUCGGACAGUGCCCAUGCAAUGGCUUGGGUUGGGAUUUUGGUUUCUUCCUUUCCUGUGAAGGAUAAGAGAAACAGGCCCGGGGGGACCAGGAUGACACCUCCAUUUCUCUCCAGGAAGUUUUGAGUUUCUCUCCACCGUGACACAAUCCUCAAACAUGGAAGAUGAAAGGGCAGGGGAUGUCAGGCCCAGAGAAGCAAGUGGCUUUCAACACACAACAGCAGAUGGCACCAACGGGACCCCCUGGCCCUGCCUCAUCCACCAAUCUCUAAGCCAAACCCCUAAACUCAGGAGUCAACGUGUUUACCUCUUCUAUGCAAGCCUUGCUAGACAGCCAGGUUAGCCUUUGCCCUGUCACCCCCGAAUCAUGACCCACCCAGUGUCUUUCGAGGUGGGUUUGUACCUUCCUUAAGCCAGGAAAGGGAUUCAUGGCGUCGGAAAUGAUCUGGCUGAAUCCGUGGUGGCACCGAGACCAAACUCAUUCACCAAAUGAUGCCACUUCCCAGAGGCAGAGCCUGAGUCACCGGUCACCCUUAAUAUUUAUUAAGUGCCUGAGACACCCGGUUACCUUGGCCGUGAGGACACGUGGCCUGCACCCAGGUGUGGCUGUCAGGACACCAGCCUGGUGCCCAUCCUCCCGACCCCUACCCACUUCCAUUCCCGUGGUCUCCUUGCACUUUCUCAGUUCAGAGUUGUACACUGUGUACAUUUGGCAUUUGUGUUAUUAUUUUGCACUGUUUUCUGUCGUGUGUGUUGGGAUGGGAUCCCA [LDLR 3'UTR (WT) 2677-3585]”, the binding result with ZFP36L1 (anti-flag IP of RNA bait, anti-Myc Western, 4 C, signal lowered by LNA1-3 but not by control LNA4-5) is “binds”; in the data set with ZFP36L1 (endogenous) it was “binds”; with ZFP36L2 (anti-flag IP of RNA bait, anti-Myc Western, 4 C, signal lowered by LNA1-3 and LNA6-14 but not by control LNA4-5) it was “binds”; with ZFP36L2 (endogenous) it was “binds”.
